The full ranking holds about 3,200 compounds; the median of “TSA(with NAD+) / Primary screening (TSA) / delta Tm (K)” is about -0.04, and the highest 2% start at about 0.37. The list shows a part of the results.
Biological target: NAD-dependent deacetylase Sirtuin 1 (human, UniProt Q96EB6)
Test: primary screen, delta tm
Design: single well (n = 1, as 'the same TSA')
Conditions: 10 µM

By UniProt entry, the sequences of proteins in these tests, tags left out. Residues count along the entry.
UniProt Q96EB6, 2-747 limits assumed: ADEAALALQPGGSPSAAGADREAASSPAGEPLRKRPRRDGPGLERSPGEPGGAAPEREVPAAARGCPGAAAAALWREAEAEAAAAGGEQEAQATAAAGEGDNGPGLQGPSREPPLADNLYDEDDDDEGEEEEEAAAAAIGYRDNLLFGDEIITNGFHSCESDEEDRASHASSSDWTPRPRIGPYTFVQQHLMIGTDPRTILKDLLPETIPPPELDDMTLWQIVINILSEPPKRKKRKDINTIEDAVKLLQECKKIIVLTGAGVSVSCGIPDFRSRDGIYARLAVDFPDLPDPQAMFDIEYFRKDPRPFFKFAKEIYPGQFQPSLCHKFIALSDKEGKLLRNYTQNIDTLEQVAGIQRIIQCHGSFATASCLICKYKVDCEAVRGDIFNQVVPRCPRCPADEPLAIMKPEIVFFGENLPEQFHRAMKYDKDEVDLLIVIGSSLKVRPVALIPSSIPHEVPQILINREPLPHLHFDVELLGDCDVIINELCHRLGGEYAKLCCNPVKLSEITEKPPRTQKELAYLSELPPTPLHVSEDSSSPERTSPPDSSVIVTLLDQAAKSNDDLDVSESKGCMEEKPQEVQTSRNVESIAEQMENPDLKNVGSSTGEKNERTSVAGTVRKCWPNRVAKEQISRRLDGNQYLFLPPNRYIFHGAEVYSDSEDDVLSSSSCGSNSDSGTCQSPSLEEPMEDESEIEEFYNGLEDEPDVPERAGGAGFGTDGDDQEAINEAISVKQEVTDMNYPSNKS

SMILES | TSA(with NAD+) / Primary screening (TSA) / delta Tm (K)
O=C1CC(c2ccccc2)c2ccc3ccccc3c2N1 (stereo not drawn) | -0.52
O=C(Cc1n[nH]c(=O)c2ccccc12)Nc1ccc(N2CCN(Cc3ccccc3)CC2)cc1 | -0.03
Cc1nc(-c2cccnc2)nc(NCC2CCOC2)c1C (stereo not drawn) | -0.24
O=C(CN1CCN(c2ncnc3c2oc2ccccc23)CC1)c1cccs1 | -0.02
OCC1CCN(c2ncnc3ccsc23)CC1 | -0.13
Cc1cc(C)n2nc(C(=O)Nc3cc(C(N)=O)cc(F)c3C)nc2n1 | -0.01
Cc1nc2cc(NC(=O)CCNC(=O)/C=C/c3ccccc3)ccc2o1 | -0.05
C=CCn1c(SCC(=O)NCc2ccccc2F)nc2ccsc2c1=O | 0.06
CCCCCCc1cc2c3c(c(=O)oc2cc1OCC(N)=O)CCC3 | -0.04
CN(C)c1ccc(CCC(=O)N2CCN(c3cnccn3)CC2)cc1 | -0.03
COc1ccc(-c2nnc(S)n2CC(=O)Nc2ccc(C(N)=O)cc2)cc1 | -0.04
O=C(COC(=O)c1cc(-c2ccc(Cl)cc2)nc2ccccc12)NNC(=O)c1cccs1 | 0.16
COc1ccc2c(C=C3C(=O)NC(=S)NC3=O)cccc2c1 | -0.28
CCCCn1nnnc1COC(=O)c1cccc(S(=O)(=O)N(C)c2ccc(OC)cc2)c1 | -0.06
O=C(Cn1[nH]c(=O)c2ccccc2c1=O)Nc1ccc(N2CCN(Cc3ccccc3)CC2)cc1 | 0.05
COCCOc1cccc(Br)c1 | -0.13
COc1ncnc2c1CN(Cc1nc(-c3ccccc3)oc1C)CC2 | -0.04
Nc1nsc(N2CCN(c3nc(C4CC4)nc4sc5c(c34)CCCC5)CC2)n1 | -0.12
COc1ccc(NC(=O)c2ccccc2NC(=O)COC(=O)C23CC4CC(CC(O)(C4)C2)C3)cc1 | -0.04

SMILES | TSA(with NAD+) / Primary screening (TSA) / delta Tm (K)
CC(NCC(=O)NCC(=O)Nc1ccc(F)cc1)c1cccs1 (stereo not drawn) | -0.11
CCN1CCN(Cc2ccc(CNC(=O)OCC(F)(F)F)cc2)CC1 | -0.04
O=C(Nc1cccc(S(=O)(=O)N2CCOCC2)c1)c1cn(-c2ccccc2)nc1-c1ccccc1 | 0.12
COc1ccc(N(C)S(=O)(=O)c2cccc(C(=O)OCCN3C(=O)c4ccccc4C3=O)c2)cc1 | -0.03
CCc1cc(O)nc(Cn2c(N)nc(C#N)c2C#N)n1 | -0.24
O=C1NC(=S)NC(=O)C1=Cc1cn(-c2ccccc2)nc1-c1cc2ccccc2oc1=O | -0.05
O=C(CSc1nnc(NCc2ccco2)s1)N1CCN(C/C=C/c2ccccc2)CC1 | 0.05
Cc1cccc(CN2CCN(C(=O)COC(=O)c3ccc(C(N)=O)cc3)CC2)c1 | -0.16
CC(=O)Nc1ccc(NCc2nnc3n(C)c(=O)c4ccccc4n23)cc1 | -0.12
COc1ccc(OC)c(N(CC(=O)NN=C2CCC(C(C)(C)C)CC2)S(=O)(=O)c2ccc(OC)c(OC)c2)c1 (stereo not drawn) | 0.06
CCc1cc(C(=O)Nc2cc(C(N)=O)ccc2N2CCCC2)sc1C | -0.13
Nc1ncnc2c1ncn2[C@@H]1O[C@H](CO)[C@@H](O)[C@H]1O | -0.03
COc1ccc(NN=C2C(=O)NC(=S)NC2=O)cc1 | -0.04
CC(NC(=O)COC(=O)c1cccc(S(=O)(=O)NCc2ccccc2)c1)C12CC3CC(CC(C3)C1)C2 (stereo not drawn) | 0.05
CC(C)COc1ccc(C(=O)C2=C(O)C(=O)N(CCN3CCOCC3)C2c2ccncc2)cc1 (stereo not drawn) | -0.09
Cc1cc(CN2CCN(S(=O)(=O)c3cc(C(N)=O)n(C)c3)CC2)on1 | -0.19
Cc1ccc(N(C)S(=O)(=O)c2cccc(C(=O)Nc3sc4c(c3C(N)=O)CCCC4)c2)cc1 | 0.13
N#Cc1cc(O)cc(C(=O)OCC(=O)NC2(C#N)CCCCC2)c1 | -0.05
Cc1ccc(C(=O)NCC(=O)N2CC=C(c3c[nH]c4cc(F)ccc34)CC2)s1 | 0.01

Part of the list above, set out differently.
SMILES,TSA(with NAD+) / Primary screening (TSA) / delta Tm (K)
O=C(CSc1nnc(NCc2ccco2)s1)N1CCN(C/C=C/c2ccccc2)CC1,0.05
Cc1cccc(CN2CCN(C(=O)COC(=O)c3ccc(C(N)=O)cc3)CC2)c1,-0.16
CC(=O)Nc1ccc(NCc2nnc3n(C)c(=O)c4ccccc4n23)cc1,-0.12

(continued)

SMILES | TSA(with NAD+) / Primary screening (TSA) / delta Tm (K)
Cc1ccc(C(=O)N(C)C)cc1OC(=O)c1ccc2[nH]c(C(F)F)nc2c1 | -0.18
CCOCC(NC(=O)N1CCN(C(=O)c2cc3ccccc3[nH]2)CC1)C(C)C (stereo not drawn) | -0.04
CC1CN(C(=O)/C=C/c2ccc(C(=O)O)cc2)CC(C)(C)O1 (stereo not drawn) | -0.13
COc1ccccc1NC(=O)COc1ccc(C(=O)OCC(=O)NC23CC4CC(CC(C4)C2)C3)cc1OC | 0.13
CCc1cc2c(N3CCC(C(N)=O)CC3)nc(C)nc2s1 | -0.18
CC(=O)Nc1ccc(CNCc2ccccc2CN2CCCC2)cc1 | -0.16
Cc1ccc(-c2nnc(NC(=O)COc3cc(C)cc(C)c3)[nH]2)cc1 | -0.11
CS(=O)(=O)Nc1ccc(C(=O)/C=C/c2ccc3c(c2)CCO3)cc1 | 0.09
Cn1cc(S(=O)(=O)NCC2CCN(c3ccc(F)cc3)C2)cc1C(=O)O (stereo not drawn) | -0.01
COC(=O)c1ccc2[nH]c(=O)[nH]c2c1 | -0.01
c1ccc2c(c1)oc1c(N3CCCC3)ncnc12 | -0.14
Cc1[nH]c2ccccc2c1C1CCN(C(=O)c2n[nH]c3c2CCC3)CC1 | -0.01
NC(=O)CC(Nc1ncncc1Br)C1CCCCC1 (stereo not drawn) | -0.09
O=C(CSc1nnc(NCc2ccco2)s1)Nc1nc2c(F)c(F)c(F)cc2s1 | -0.08
COC(=O)/C=C1/NC(=O)CS1 | -0.13
O=C(NNC1c2ccccc2-c2ccccc21)c1ccc2ccccc2n1 | -0.11
COc1ccc(N(C)S(=O)(=O)c2cccc(C(=O)NNC(=O)OC(C)(C)C)c2)cc1 | -0.14
CCOC(=O)c1cn[nH]c1N | -0.19
CCOC(=O)N1CCN(CCC(=O)Nc2ccc(C(C)=O)cc2)CC1 | -0.19
